Data published in PubChem BioAssay AID493014 (National Center for Advancing Translational Sciences (NCATS), 2011).
The list shows a part of the results. Shown are side measurements of this screen, not its main read-out; they come without a call. Most of these compounds were active or inconclusive in the main read-out, so they are no random draw. Potencies come from curve fits of mixed quality, noted in brackets.

Assay: qHTS Assay to Find Inhibitors of Chronic Active B-Cell Receptor Signaling
Conditions: ABC-DLBCL IkBa-CBG/CBR reporter, luminescence ratio (green luciferase fused to IkBa over red control in TMD8 lymphoma cells), 4 h
Summary of the method: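 TMD8 human ABC-DLBCL cells with doxycycline-inducible IκBα–green luciferase fusion and unfused red luciferase, in 0.5% FBS medium; compounds up to 46 uM, 4 h at 37C. Green/red luminescence ratio, filter-overlap corrected, fitted to concentration-response curves.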

[1] = measured here: CBR red luminescence, cell number
[2] = measured here: IkBa-CBG green luminescence

With `CCOC(=O)CNC(=O)CSc1nc2cccnc2n1Cc1ccccc1` the AC50 [1] was 14.1 µM [falling, partial curve, poor fit].
In the case of `O=C(CSc1nc(-c2ccccc2)c(-c2ccccc2)[nH]1)NCC1CCCO1` (configuration not stated), the AC50 [1] is reported as 6.31 µM [falling, partial curve, poor fit].
For `CC(C)Cc1cc(C(=O)Nc2cc(Br)ccc2O)no1`, the AC50 [1] was 2.91 µM [rising, partial curve].
With `COc1ccc(NC(=O)COC(=O)c2ccc3ccccc3n2)c(OC)c1` the AC50 [1] was 1.84 µM [rising, partial curve, poor fit].
In the case of `O=C(Nc1cccs1)Nc1ccccc1Cl`, the AC50 [1] is reported as 29.1 µM [falling, single point].
In the case of `Cc1nn(-c2ccccc2)c(N2CCCC2)c1/C=N/NC(=S)Nc1ccccc1F`, the AC50 [1] is reported as 18.4 µM [falling, single point].
For `O=C(/C=C/c1ccc(N2CCOCC2)cc1)c1ccccc1`, the AC50 [1] was 35.5 µM [falling, single point].
For `CCS(=O)(=O)NCC(c1ccco1)N1CCN(c2ccc(OC)cc2)CC1` (configuration not stated), the AC50 [1] was 35.5 µM [rising, single point].
In the case of `C/C(CC(=O)Nc1ccc(Cl)c(C(F)(F)F)c1)=N\NC(=O)c1ccccc1O`, the AC50 [1] is reported as 2.31 µM [falling, full curve].
For `COc1cc2c3c(c1OC)C1(C=CC(=O)C=C1)CC3N(C(C)=O)CC2` (configuration not stated), the AC50 [1] was 3.26 µM [rising, partial curve, poor fit].
For `Cc1cc(/C=C\c2ccc3cc(N(C)C)ccc3[n+]2C)c(C)n1-c1ccccc1`, the AC50 [1] was 25.9 µM [falling, single point].
For `O=C(COc1ccc(Br)cc1Cl)N1CCN(c2ccccn2)CC1`, the AC50 [1] was 12.6 µM [rising, partial curve, poor fit].
With `O=C(c1ccccc1)c1nnc(-c2ccncc2)o1` the AC50 [1] was 29.1 µM [falling, single point].
With `COc1ccc(C(=O)Nc2cc(S(=O)(=O)N3CCCC3)ccc2Cl)cc1` the AC50 [1] was 20.6 µM [falling, single point].
For `Cc1noc(C)c1CN1C(=O)c2ccccc2C1=O`, the AC50 [1] was 12.6 µM [rising, single point].
With `CC1=CC(C)(C)N(C(=O)CN2C(=O)CCC2=O)c2ccccc21` the AC50 [1] was 10 µM [rising, partial curve, poor fit].
For `N=c1c2c(-c3ccccc3)c(-c3ccccc3)n(Cc3ccco3)c2ncn1Cc1ccco1`, the AC50 [1] was 35.5 µM [falling, single point].
For `Cc1onc(-c2ccccc2)c1C(=O)NC(=S)NNC(=O)c1ccncc1`, the AC50 [1] was 16.4 µM [falling, single point].
In the case of `O=C(COc1ccccc1F)N/N=C1\CCCc2ccccc21`, the AC50 [1] is reported as 0.58 µM [rising, full curve, poor fit].
With `CCCCc1ccc(NC(=O)COc2cccc3c(=O)n(C)ccc23)cc1` the AC50 [1] was 8.91 µM [rising, partial curve, poor fit].
For `O=C(CCC(=O)Nc1ccc(F)cc1)N/N=C/c1ccc(O)cc1O`, the AC50 [1] was 3.98 µM [falling, full curve].
In the case of `COc1cccc(NC(=O)CCC(=O)N2CC(C)Oc3ccc(C)cc32)c1` (configuration not stated), the AC50 [1] is reported as 6.31 µM [falling, full curve, poor fit].
For `COC(=O)c1cc2sc(Cl)cc2n1CC(=O)NCCC(C)C`, the AC50 [1] was 20.6 µM [rising, partial curve, poor fit].
In the case of `CCOC(=O)Cn1cnc2c(nnn2-c2cccc(Cl)c2)c1=O`, the AC50 [1] is reported as 11.2 µM [rising, partial curve].
With `Cc1ccc(NC2=NC(=S)N(CC#N)C23CCCCC3)cc1` the AC50 [1] was 23.1 µM [rising, single point].
In the case of `O=C(O)c1ccc(COc2ccc3c(c2)CCC3)cc1`, the AC50 [1] is reported as 11.2 µM [falling, partial curve].
With `COc1cc(/C=C2/SC(=Nc3ccc(O)cc3)NC2=O)ccc1O` the AC50 [1] was 0.562 µM [falling, full curve, poor fit].
With `CCN(CC)C(=O)CSc1nc(O)c(Cc2ccccc2)c(=O)n1-c1ccccc1C` the AC50 [1] was 0.316 µM [falling, full curve].
For `Cn1c(CCN2CCCCC2)nc2cc(NS(=O)(=O)c3ccc(Cl)cc3)ccc21`, the AC50 [1] was 2.82 µM [falling, partial curve, poor fit].
For `COc1cc(/C=C/C(=O)OCC(=O)c2ccccc2)cc(OC)c1OC`, the AC50 [1] was 18.4 µM [rising, partial curve].
In the case of `Cc1ccc(NC(=O)CCNS(=O)(=O)c2cccc3nsnc23)cc1`, the AC50 [1] is reported as 7.31 µM [rising, partial curve, poor fit].
With `O=C(O)C1CC(=O)N(c2ccc(OCc3ccc(Cl)cc3Cl)cc2)C1` (configuration not stated) the AC50 [1] was 13 µM [falling, partial curve].
With `CCOC(=O)Cc1csc(NC(=S)NC(=O)c2cc(OC)cc(OC)c2)n1` the AC50 [1] was 14.1 µM [falling, partial curve] and the AC50 [2] was 17.8 µM [falling, single point].
With `CCOc1ccc(/C=N/NC(=O)c2nnn(-c3nonc3N)c2-c2ccc(OCC)cc2)cc1` the AC50 [1] was 0.00517 µM [rising, full curve, poor fit].
With `CCC1c2ccc(C)n2CCN1C(=O)Nc1cc(Cl)ccc1OC` (configuration not stated) the AC50 [1] was 8.2 µM [rising, partial curve, poor fit].
For `O=C(NNC(=O)C1CCCO1)c1ccccc1Cl` (configuration not stated), the AC50 [1] was 29.1 µM [rising, single point].
With `Cc1ccc2oc3c(c(=O)c2c1)C(c1cccc(Cl)c1)N(CCCN1CCOCC1)C3=O` (configuration not stated) the AC50 [1] was 3.66 µM [rising, single point].
With `CC(=O)c1cc2c(cc1NC(=O)c1cc(C)nn1-c1ccccc1)OCO2` the AC50 [1] was 6.51 µM [rising, partial curve, poor fit].
In the case of `Cc1onc(-c2ccccc2)c1C(=O)Oc1cccnc1`, the AC50 [1] is reported as 4.61 µM [falling, single point].
With `Cc1nc(SCCC(=O)O)c2ccccc2n1` the AC50 [1] was 29.1 µM [rising, single point].
For `Cc1ccccc1OCCNc1cc(N2CCCCC2)ccc1[N+](=O)[O-]`, the AC50 [1] was 10 µM [rising, partial curve].
For `CN(C)c1ccc(N=Nc2ccccc2Br)cc1`, the AC50 [1] was 0.1 µM [rising, full curve, poor fit].
For `O=C(O)c1ccc(/C=C2\CCCc3c2nc2ccccc2c3C(=O)O)cc1`, the AC50 [1] was 11.2 µM [falling, partial curve, poor fit].
For `CCOCCSC1=C(C#N)C(c2cccs2)C(C(C)=O)=C(C)N1` (configuration not stated), the AC50 [1] was 2.91 µM [rising, single point].
In the case of `Cc1ncc(CO)c(/C=N/NC(=O)c2cc(Br)ccc2O)c1O`, the AC50 [1] is reported as 1.12 µM [falling, full curve, poor fit].
In the case of `Nc1cc(=O)[nH]c(SCC(=O)Nc2cc([N+](=O)[O-])ccc2Cl)n1`, the AC50 [1] is reported as 1.58 µM [rising, full curve, poor fit].
With `CCCCn1nc(NC(=O)c2cccs2)c2cc3ccccc3nc21` the AC50 [1] was 11.2 µM [falling, partial curve].
For `Clc1cccc(OCc2nnc(-c3ccccc3Br)o2)c1`, the AC50 [1] was 1 µM [rising, partial curve, poor fit].
In the case of `N/C(=N\OC(=O)c1cccc(Br)c1)c1ccccn1`, the AC50 [1] is reported as 7.94 µM [falling, partial curve, poor fit].
In the case of `COc1ccc(Nc2ncnc3sc(C)cc23)c(OC)c1`, the AC50 [1] is reported as 3.55 µM [rising, full curve].
For `COc1ccc(NC(=O)N2CCc3ccccc32)cc1`, the AC50 [1] was 8.2 µM [falling, partial curve, poor fit].
In the case of `O=C(Nc1ccccc1Oc1cccnc1)C1CCCN(Cc2cccc(Cl)c2)C1` (configuration not stated), the AC50 [1] is reported as 15.8 µM [falling, single point].
In the case of `O=C(Nc1cccc(Cl)c1)c1cc(F)cc2c1OCOC2`, the AC50 [1] is reported as 0.355 µM [rising, partial curve, poor fit].
With `CC(C)CNS(=O)(=O)c1ccc(C(=O)Nc2ccc3c(c2)OCCO3)cc1` the AC50 [1] was 3.55 µM [falling, single point].
For `CC(C)c1ccccc1OCC(O)CN1CCN(S(=O)(=O)c2ccc([N+](=O)[O-])cc2)CC1` (configuration not stated), the AC50 [1] was 1.78 µM [falling, partial curve, poor fit].
For `CCNC(=S)N/N=C(\C)c1cccc(OC)c1`, the AC50 [1] was 35.5 µM [falling, single point] and the AC50 [2] was 17.8 µM [falling, partial curve].
In the case of `CN1CCN(C(c2cccc(Br)c2)c2sc3nc(-c4ccco4)nn3c2O)CC1` (configuration not stated), the AC50 [1] is reported as 35.5 µM [rising, partial curve, poor fit].
In the case of `O=C(NCc1ccc(F)cc1)c1cnc2sccn2c1=O`, the AC50 [1] is reported as 9.2 µM [rising, partial curve, poor fit].
With `Cc1ccnc(NS(=O)(=O)c2ccc(N)cc2)n1` the AC50 [1] was 0.631 µM [rising, full curve].
For `COc1ccc(C(=O)NC2CCCc3ccccc32)cc1Br` (configuration not stated), the AC50 [1] was 2.82 µM [falling, partial curve, poor fit].
With `CC(C)N(Cc1nc(-c2ccc(Cl)cc2)no1)C(=O)C12CC3CC(CC(C3)C1)C2` the AC50 [1] was 0.0731 µM [rising, full curve, poor fit].
In the case of `Cn1c(N/N=C/c2c[nH]c3ccccc23)nc2ccccc21`, the AC50 [1] is reported as 7.08 µM [falling, partial curve, poor fit].
In the case of `COc1cc(NC(=O)c2ccc3c(c2)OCO3)c2ncccc2c1`, the AC50 [1] is reported as 1.46 µM [rising, full curve].
In the case of `O=C(CSc1nnnn1C1CCCC1)Nc1cccc(NC(=O)c2ccco2)c1`, the AC50 [1] is reported as 1 µM [falling, full curve].
With `Cc1c(OC(C)C(=O)NC2CC(C)(C)NC(C)(C)C2)ccc2c3c(c(=O)oc12)CCC3` (configuration not stated) the AC50 [1] was 0.708 µM [falling, partial curve, poor fit].
